Laboratory results as given in the supplement of paper PMC10735217.
Counter-ions that a name gives are not always drawn. The list shows a part of the results. This data set is noisy: repeats of one test often differ as much as different tests do.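 Human kidney-derived cells stably carry a construct in which eight TEAD-binding elements drive luciferase, measured by luminescence in a drug-repurposing library screen. A hit is any compound whose signal exceeds the plate mean by more than five robust Z scores.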

Tested on: HEK293A TEAD-LUC reporter
Assay: TEAD-luciferase reporter activity (YAP activation), robust Z score vs plate; higher = stronger YAP/TEAD activation
Conditions: 24 h

| Compound | TEAD-luciferase reporter activity (compound concentration: 200 nM) | TEAD-luciferase reporter activity (compound concentration: 2 uM) | TEAD-luciferase reporter activity (compound concentration: 10 uM) |
| --- | --- | --- | --- |
| CC1(c2ccccc2)NCCc2ccccc21 (centres undefined) | inactive: 0.173 | inactive: -2.51 | inactive: 3.69 |
| CN(C)Cc1ccccc1Sc1cccc(O)c1 [Moxifetin hydrogen maleate] | inactive: 4.95 | inactive: -0.127 | inactive: -1.81 |
| Cn1nc(C(=O)NCCN2CCOCC2)cc1-c1cnc2ccccc2c1 | inactive: 1.27 | inactive: -0.611 | inactive: -0.991 |
| C[C@@H](NC(=O)c1ccc(Br)cc1NS(=O)(=O)c1cccc2nccnc12)c1ccc(F)cc1F | inactive: 3.12 | inactive: -0.533 | inactive: -1.89 |
| COc1c(OC[C@@H](O)CN2CCOCC2)ccc2c1N=C(NC(=O)c1cccnc1C)N1CCN=C21 | inactive: 0.209 | – | inactive: 0.313 |
| O=C(O)c1c[nH]c2cc(Cl)c(-c3ccc(C4(O)CCC4)cc3)cc12 | inactive: 1.07 | inactive: 0.751 | inactive: -1.48 |
| CNC(=O)C[C@@H](N)C(=O)N[C@@H](C(=O)N[C@@H]1C(=O)N2[C@@H]1SC(C)(C)[C@@H]2C(=O)O)c1ccc(O)cc1 [Aspoxicillin] | inactive: -1.46 | – | inactive: 0.131 |
| CNC(=O)C[C@@H](N)C(=O)N[C@@H](C(=O)N[C@@H]1C(=O)N2[C@@H]1SC(C)(C)[C@@H]2C(=O)O)c1ccc(O)cc1 [Aspoxicillin trihydrate] | – | inactive: -0.623 | – |
| CCOC(=O)C1=C(C)NC(C)=C(C(=O)OC)C1c1cccc(Cl)c1Cl (centres undefined) [felodipine patch] | – | inactive: -0.717 | – |
| CCOC(=O)C1=C(C)NC(C)=C(C(=O)OC)C1c1cccc(Cl)c1Cl (centres undefined) [felodipine patch, Pierre Fabre] | inactive: -2.2 | – | inactive: -1.28 |
| O=C(O)Cc1ccc(CCNS(=O)(=O)c2ccc(Cl)cc2)cc1 [Daltroban] | inactive: 0.856 | inactive: -0.894 | inactive: 0.476 |
| OC1C(O)C(O)C(O)C(O)C1O (centres undefined) [Inositol] | inactive: -0.785 | inactive: 0.357 | inactive: -0.0874 |
| CC(C)CC(=O)Nc1cc(-c2ccc(C(N)=O)cc2C(=O)O)cc(C2CC(C)(c3ccccc3)c3cc(C(=N)N)ccc3N2)c1 (centres undefined) | inactive: -1.58 | inactive: -0.237 | inactive: -0.845 |
| C[C@@H]1CC[C@@]2(NC1)O[C@H]1C[C@H]3[C@@H]4CC=C5C[C@@H](O[C@@H]6O[C@H](CO)[C@@H](O[C@@H]7O[C@@H](C)[C@H](O)[C@@H](O)[C@H]7O)[C@H](O)[C@H]6O[C@@H]6O[C@@H](C)[C@H](O)[C@@H](O)[C@H]6O)CC[C@]5(C)[C@H]4CC[C@]3(C)[C@H]1[C@@H]2C [Solamargine] | inactive: -0.807 | inactive: -0.391 | inactive: 0.0535 |
| O=C(NCCN1CCOCC1)Nc1nc2ccc(Sc3nnc4ccc(-c5ccc(F)cc5)nn34)cc2s1 | inactive: 0.565 | inactive: -0.415 | inactive: -1.46 |
| CN/C(=C\[N+](=O)[O-])NCCSCc1csc(CN(C)C)n1 | inactive: -1.06 | – | inactive: 0.0833 |
| CN/C(=C\[N+](=O)[O-])NCCSCc1csc(CN(C)C)n1 [nizatidine] | – | inactive: 0.546 | – |
| CC(C)C(=O)OC[C@H]1O[C@H](O[C@H]2O[C@H](COC(=O)C(C)C)[C@@H](O)[C@H](O)[C@H]2O)[C@H](O)[C@@H](O)[C@@H]1O | inactive: -0.178 | inactive: 0.137 | inactive: -0.465 |
| CCC(=O)c1ccc(F)c([C@@H]2C[C@@H]2NC(=O)Nc2ccc(C#N)cn2)c1O | inactive: -1.3 | inactive: -0.998 | inactive: 0.971 |
| NCCCCCN | inactive: -0.621 | inactive: -1.8 | inactive: -0.806 |
| [N-]=[N+]=N[C@@H]1C[C@@H](CO)O[C@H]1n1ccc(=O)[nH]c1=O | inactive: -1.3 | inactive: -0.0987 | inactive: 0.366 |
| C[C@@H](O)CNC(C)(C)CC(=O)N[C@@H]1CCc2ccccc2N(Cc2ccc(-c3ccccc3-c3nn[nH]n3)cc2)C1=O | inactive: -1.02 | inactive: 0.366 | inactive: -1.25 |
| CN1CCCCC12Cc1ccccc1CN(C(=O)c1ccccc1)C2 (centres undefined) | inactive: -0.283 | – | active: 5.08 |
| Cc1ccc(CN2CCC3(CC2)NC(=O)c2ccccc2O3)cc1 | inactive: -2.58 | – | inactive: 1.54 |
| O=C(Nc1cccc(C2=NCCN2)c1)Nc1cccc(C2=NCCN2)c1 | inactive: -0.542 | inactive: -1.18 | inactive: -2.75 |
| COc1cc(C(=O)N(C(C)C)C(C)C)ccc1OCCCCCOc1ccc(C(=N)N)cc1 | inactive: -2.22 | inactive: -1.01 | inactive: -1.44 |
| CCOC(=O)[C@H](CCc1ccccc1)N[C@@H](C)C(=O)N1N=C(C(C)(C)C)S[C@H]1C(=O)O | inactive: -0.365 | inactive: -1.64 | inactive: 0.258 |
| CC(C)(O)c1cccn2c(C3(c4ccc(Cl)cc4)CC3)nnc12 | inactive: -0.69 | inactive: -1.63 | inactive: -1.83 |

| Compound | TEAD-luciferase reporter activity (compound concentration: 200 nM) | TEAD-luciferase reporter activity (compound concentration: 2 uM) | TEAD-luciferase reporter activity (compound concentration: 10 uM) |
| --- | --- | --- | --- |
| CC(=O)N[C@H]1CC(=O)N(c2ccc(OCc3cccc(F)c3)cc2)C1 [Sembragiline] | inactive: 1.12 | inactive: 0.841 | inactive: 0.781 |
| CC(CN1CCN(CCOCCO)CC1)CN1c2ccccc2Sc2ccccc21 (centres undefined) | inactive: -1.66 | inactive: 0.668 | inactive: -0.464 |
| CCCCCCCCO [1-Octanol] | inactive: 0.8 | inactive: -0.358 | inactive: -0.97 |
| Clc1ccc(-c2cccc(N3CCNCC3)n2)cc1Cl | inactive: 0.757 | inactive: -1.01 | inactive: -0.3 |
| CC(=O)NC[C@H]1CN(c2ccc(S(C)=O)cc2)C(=O)O1 (some centres undefined) | inactive: -0.362 | inactive: 1.43 | inactive: -0.485 |
| CCC1C(=O)NC(=O)C1(C)c1ccccc1 (centres undefined) | inactive: -0.106 | inactive: -0.115 | inactive: 0.377 |
| NS(=O)(=O)OCCCCCCCOS(N)(=O)=O | inactive: -1.12 | inactive: 0.279 | inactive: -0.997 |
| COc1cc(C(=O)OCc2cccc(COC(=O)c3cc(OC)c(OC)c(OC)c3)n2)cc(OC)c1OC [pirozadil] | inactive: 2.06 | inactive: 0.0152 | inactive: 0.188 |
| O=C(O)c1c(O)c(-c2ccccc2)nc2ccccc12 | – | inactive: -0.239 | – |
| O=C(O)c1c(O)c(-c2ccccc2)nc2ccccc12 [3-Hydroxy-2-phenylquinoline-4-carboxylic acid] | inactive: -0.967 | – | inactive: -0.995 |
| COc1cccc(Nc2c(C(N)=O)cnc3c(C)cc(S(=O)(=O)c4cccc(C(=O)N(C)C)c4)cc23)c1 | inactive: -0.546 | inactive: -2.39 | inactive: -1.36 |
| CC[C@H]1O[C@@H](n2cnc3c(=O)[nH]cnc32)[C@H](O)[C@@H]1O.N[C@@H](Cc1c[nH]c2ccc(O)cc12)C(=O)O [Triptosine] | inactive: 1.99 | inactive: 0.194 | inactive: 0.11 |
| CCCCOC(=O)NS(=O)(=O)c1ccccc1-c1ccc(Cn2c(CCCC)nc3cc(NC(=O)CCCC)c(C)nc32)cc1 | inactive: -0.996 | inactive: -0.692 | inactive: 0.242 |
| CCn1cc(-c2ccnc3[nH]c(-c4cccc(CN(C)C)c4)cc23)c(-c2ccc(NC(=O)N(C)C)cc2)n1 | inactive: 0.69 | inactive: -1.41 | inactive: 1.23 |
| c1cc(-c2cnn3cc(-c4ccc(OCCN5CCCCC5)cc4)cnc23)ccn1 [Compound C] | inactive: -0.687 | inactive: 2.16 | inactive: -0.104 |
| NC1CCN(c2c(F)cc3c(=O)c(C(=O)O)cn4c3c2Oc2ccccc2-4)C1 (centres undefined) | inactive: -1.55 | active: 16.4 | active: 5.15 |
| C=CC1=C(C(=O)O)N2C(=O)[C@@H](NC(=O)C(N=O)c3csc(N)n3)[C@H]2SC1 (some centres undefined) | active: 8.92 | inactive: -1.4 | inactive: 2.57 |
| O=C(NCCO)c1nn(-c2ccccc2F)c2c1CCC2 | inactive: -0.881 | inactive: -0.042 | inactive: 0.573 |
| CCC(c1ccc(O)cc1)C(CC)C(C)c1ccc(O)cc1 (centres undefined) | inactive: 1.42 | inactive: 2.92 | inactive: 1.72 |
| CC(C)[C@H](NC(=O)[C@H](CCCCN)NC(=O)[C@H](CC(=O)O)NC(=O)[C@@H](N)CCCNC(=N)N)C(=O)N[C@@H](Cc1ccc(O)cc1)C(=O)N[C@@H](CCCNC(=N)N)C(=O)O [Imunofan] | inactive: -1.27 | inactive: 0.34 | inactive: -1.93 |
| CC[C@H](C)[C@@H]([C@@H](CC(=O)N1CCC[C@H]1[C@H](OC)[C@@H](C)C(=O)NCCc1ccccc1)OC)N(C)C(=O)[C@@H](NC(=O)[C@H](C(C)C)N(C)C)C(C)C [soblidotin] | inactive: 3.61 | inactive: 2.85 | inactive: 2.26 |
| O=C(Oc1ccccc1)c1ccccc1O [Phenyl salicylate] | inactive: -0.0239 | – | inactive: -0.904 |
| O=C(Oc1ccccc1)c1ccccc1O | – | inactive: 0.0836 | – |
| CCOCCOC(=O)c1nc2cc(Cl)ccc2o1 | inactive: 0.614 | inactive: 0.231 | inactive: -0.567 |
| O=C(Nc1cnccc1Cl)N1CCN(Cc2ccc3c(c2)OC(F)(F)O3)CC1 | inactive: 1.2 | inactive: -0.366 | inactive: 0.459 |
| c1ccc([C@H]2CN3CCSC3=N2)cc1 [levamisole] | – | inactive: 1.36 | – |
| c1ccc([C@H]2CN3CCSC3=N2)cc1 [Levamisole HCl] | inactive: -1.53 | – | inactive: -1.13 |

A different layout for part of the listing above:
Compound	TEAD-luciferase reporter activity (compound concentration: 200 nM)	TEAD-luciferase reporter activity (compound concentration: 2 uM)	TEAD-luciferase reporter activity (compound concentration: 10 uM)
Clc1ccc(-c2cccc(N3CCNCC3)n2)cc1Cl	inactive: 0.757	inactive: -1.01	inactive: -0.3
CC(=O)NC[C@H]1CN(c2ccc(S(C)=O)cc2)C(=O)O1 (some centres undefined)	inactive: -0.362	inactive: 1.43	inactive: -0.485
CCC1C(=O)NC(=O)C1(C)c1ccccc1 (centres undefined)	inactive: -0.106	inactive: -0.115	inactive: 0.377
NS(=O)(=O)OCCCCCCCOS(N)(=O)=O	inactive: -1.12	inactive: 0.279	inactive: -0.997
